# This is one part of the list.
# Legend:
# Assay in all cases: glycan array binding signal (z-score within array); higher = stronger binding
# Details in all cases: glycan notation: IUPAC condensed, linker removed
# [1] = target: Neu5Ac(a2-6)GlcNAc(b1-4)GlcNAc(b1-4)GlcNAc
# Method in brief: (§1)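 Negative Z-scores can be read as non-binding. The Z-score is calculated within each array and then averaged across arrays of one protein sequence at different concentrations or buffers and across linkers. Arrays, 3228 in all, were curated from the Consortium for Functional Glycomics database and kept only where the protein sequence was available.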
# Neu5Ac(a2-8)Neu5Ac = target: Neu5Ac(a2-8)Neu5Ac
# Method in brief: as §1
# [2] = target: Neu5Ac(a2-8)Neu5Ac(a2-3)Gal(b1-3)GalNAc(b1-4)[Neu5Ac(a2-3)]Gal(b1-4)Glc
# Method in brief: as §1
# [3] = target: Neu5Ac(a2-8)Neu5Ac(a2-3)Gal(b1-3)GalNAc(b1-4)[Neu5Ac(a2-8)Neu5Ac(a2-3)]Gal(b1-4)Glc
# Method in brief: as §1
# [4] = target: Neu5Ac(a2-8)Neu5Ac(a2-3)Gal(b1-4)Glc
# Method in brief: as §1
# [5] = target: Neu5Ac(a2-8)Neu5Ac(a2-3)Gal(b1-4)GlcNAc
# Method in brief: as §1
# [6] = target: Neu5Ac(a2-8)Neu5Ac(a2-3)[Gal(b1-3)GalNAc(b1-4)]Gal(b1-4)Glc
# Method in brief: as §1
# [7] = target: Neu5Ac(a2-8)Neu5Ac(a2-3)[GalNAc(b1-4)]Gal(b1-4)Glc
# Method in brief: as §1
# [8] = target: Neu5Ac(a2-8)Neu5Ac(a2-8)Neu5Ac
# Method in brief: as §1
# [9] = target: Neu5Ac(a2-8)Neu5Ac(a2-8)Neu5Ac(a2-3)Gal(b1-4)Glc
# Method in brief: as §1
# [10] = target: Neu5Ac(a2-8)Neu5Ac(a2-8)Neu5Ac(a2-3)[Gal(b1-3)GalNAc(b1-4)]Gal(b1-4)Glc
# Method in brief: as §1
# [11] = target: Neu5Ac(a2-8)Neu5Ac(a2-8)Neu5Ac(a2-3)[GalNAc(b1-4)]Gal(b1-4)Glc
# Method in brief: as §1
# [12] = target: Neu5Ac(a2-8)Neu5Ac(a2-8)Neu5Ac(a2-8)Neu5Ac(a2-3)[GalNAc(b1-4)]Gal(b1-4)Glc
# Method in brief: as §1
# [13] = target: Neu5Ac(a2-8)Neu5Gc(a2-3)Gal(b1-4)GlcNAc
# Method in brief: as §1
# [14] = target: Neu5Ac(b2-6)Gal(b1-4)GlcNAc
# Method in brief: as §1
# Neu5Ac(b2-6)GalNAc = target: Neu5Ac(b2-6)GalNAc
# Method in brief: as §1
# [15] = target: Neu5Ac9Ac(a2-3)Gal(b1-3)GlcNAc
# Method in brief: as §1
# [16] = target: Neu5Ac9Ac(a2-3)Gal(b1-4)GlcNAc
# Method in brief: as §1
# [17] = target: Neu5Ac9Ac(a2-6)Gal(b1-4)GlcNAc
# Method in brief: as §1
# [18] = target: Neu5Gc(a2-3)Gal(b1-3)GlcNAc
# Method in brief: as §1
# [19] = target: Neu5Gc(a2-3)Gal(b1-3)[Fuc(a1-4)]GlcNAc
# Method in brief: as §1
# Neu5Gc(a2-3)Gal(b1-4)Glc = target: Neu5Gc(a2-3)Gal(b1-4)Glc
# Method in brief: as §1
# [20] = target: Neu5Gc(a2-3)Gal(b1-4)GlcNAc
# Method in brief: as §1
# [21] = target: Neu5Gc(a2-3)Gal(b1-4)GlcNAc(b1-3)Gal(b1-4)GlcNAc(b1-2)Man(a1-3)[Neu5Gc(a2-3)Gal(b1-4)GlcNAc(b1-3)Gal(b1-4)GlcNAc(b1-2)Man(a1-6)]Man(b1-4)GlcNAc(b1-4)GlcNAc
# Method in brief: as §1
# [22] = target: Neu5Gc(a2-3)Gal(b1-4)[Fuc(a1-3)]GlcNAc
# Method in brief: as §1
# [23] = target: Neu5Gc(a2-6)Gal(b1-4)GlcNAc
# Method in brief: as §1
# Neu5Gc(a2-6)GalNAc = target: Neu5Gc(a2-6)GalNAc
# Method in brief: as §1
# [24] = target: Neu5Gc(a2-8)Neu5Ac(a2-3)Gal(b1-4)GlcNAc
# Method in brief: as §1
# [25] = target: Neu5Gc(a2-8)Neu5Gc(a2-3)Gal(b1-4)GlcNAc
# Method in brief: as §1
# [26] = target: Neu5Gc(a2-8)Neu5Gc(a2-3)Gal(b1-4)GlcNAc(b1-3)Gal(b1-4)GlcNAc
# Method in brief: as §1
# [27] = target: Neu5Gc(a2-8)Neu5Gc(a2-6)Gal(b1-4)GlcNAc
# Method in brief: as §1
# [28] = target: Neu5Gc(b2-6)Gal(b1-4)GlcNAc
# Method in brief: as §1
binder,measurement,setting,value
BIp1-His (Cryptococcus neoformans) (protein) MFTKIFVALFAATAVLSAPVESAEKRITHTGRATFYSPSVGIGACGWQNTDEELVVALNAPQYALNADHNCGQSVRITNEQNGNQEIAKVVDLCPGCNDGDLDMSPALFGALNNNDFDQGVFPISWNFLPRDDTSSSN,glycan array binding signal (z-score),[1],-0.542
same,glycan array binding signal (z-score),Neu5Ac(a2-8)Neu5Ac,0.432
same,glycan array binding signal (z-score),[2],0.501
same,glycan array binding signal (z-score),[3],1.77
same,glycan array binding signal (z-score),[4],-1.09
same,glycan array binding signal (z-score),[5],-0.692
same,glycan array binding signal (z-score),[6],-0.737
same,glycan array binding signal (z-score),[7],0.558
same,glycan array binding signal (z-score),[8],-0.332
same,glycan array binding signal (z-score),[9],-0.359
same,glycan array binding signal (z-score),[10],0.702
same,glycan array binding signal (z-score),[11],-0.085
same,glycan array binding signal (z-score),[12],-0.15
same,glycan array binding signal (z-score),[13],-0.324
same,glycan array binding signal (z-score),[14],-0.832
same,glycan array binding signal (z-score),Neu5Ac(b2-6)GalNAc,-0.971
same,glycan array binding signal (z-score),[15],-0.098
same,glycan array binding signal (z-score),[16],-0.399
same,glycan array binding signal (z-score),[17],-0.386
same,glycan array binding signal (z-score),[18],-0.069
same,glycan array binding signal (z-score),[19],-0.455
same,glycan array binding signal (z-score),Neu5Gc(a2-3)Gal(b1-4)Glc,0.075
same,glycan array binding signal (z-score),[20],-0.584
same,glycan array binding signal (z-score),[21],1.38
same,glycan array binding signal (z-score),[22],0.255
same,glycan array binding signal (z-score),[23],-0.335
same,glycan array binding signal (z-score),Neu5Gc(a2-6)GalNAc,-1.14
same,glycan array binding signal (z-score),[24],-0.932
same,glycan array binding signal (z-score),[25],-0.973
same,glycan array binding signal (z-score),[26],-0.843
same,glycan array binding signal (z-score),[27],-0.752
same,glycan array binding signal (z-score),[28],1

# For reference, some entries already given:
binder,measurement,setting,value
BIp1-His (Cryptococcus neoformans) (protein) MFTKIFVALFAATAVLSAPVESAEKRITHTGRATFYSPSVGIGACGWQNTDEELVVALNAPQYALNADHNCGQSVRITNEQNGNQEIAKVVDLCPGCNDGDLDMSPALFGALNNNDFDQGVFPISWNFLPRDDTSSSN,glycan array binding signal (z-score),[9],-0.359
same,glycan array binding signal (z-score),[10],0.702

# Source: the supplement of paper PMC8728848
